Experimental data from the supplement of paper PMC12889115.
Some of the results follow. Values are raw readings; no control value is given beside them.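 In the initial screen, polymyxin B was used at a concentration that permeabilizes Salmonella's outer membrane but not its inner membrane. Maximum growth was set by DMSO wells with or without polymyxin B. Since plates varied, data were ranked per plate, and compounds giving the lowest OD600 advanced as hits.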

System: Salmonella enterica serovar Typhimurium SL1344
Experiment: bacterial growth OD600 after 18 h with compound and polymyxin B; higher = more bacterial growth (less inhibition)
Conditions: 50 µM, Mueller-Hinton broth

SMILES | bacterial growth OD600 (polymyxin B 0.75 µg/mL) | bacterial growth OD600 (polymyxin B 1 µg/mL)
COc1cccc(O)c1CN1CCC(C(Cc2ccccc2F)N(C)C(=O)c2ccoc2C)CC1 (stereo not drawn) | 0.858 | –
COc1ccc(-c2cn3c(C(=O)N4CCN5CCCC5C4)csc3n2)cc1F (stereo not drawn) | 0.8 | –
Cc1ccc(CN(C)C(=O)C2CCC(=O)N(CCCN3CCOCC3)C2)o1 (stereo not drawn) | – | 0.771
CCOC(=O)C1(Cc2cccc(Cl)c2)CCCN(C(=O)CCCn2cncn2)C1 (stereo not drawn) | 0.703 | –
Fc1ccccc1CN1CCCC(NC2CSCCSC2)C1 (stereo not drawn) | 0.748 | –
CS(=O)(=O)N1CCC(Oc2ccccc2C(=O)NCCCn2cccn2)CC1 | – | 0.887
O=C(CSc1ccccc1)NC1CC(=O)N(Cc2cccc(F)c2)C1 (stereo not drawn) | – | 0.991
CN(CCc1ccccc1)Cc1cc(C(=O)N2CCCC2)no1 | – | 1.26
CCO[C@H]1[C@H](NC(=O)c2cccnc2)c2ccccc2C12CCN(C(=O)CCN1CCCO1)CC2 | 0.844 | –
Cc1ccc(CN2CCN(C(=O)c3cn(Cc4ccccc4F)nn3)CC2=O)cc1 | – | 0.977
Cc1ccccc1C1(CC(=O)N2CCN(C(C)C)CC2)CC(=O)N(Cc2ccncc2)C1=O (stereo not drawn) | 0.821 | –
COC(=O)CC(NC(=O)c1csc2nc(-c3ccccc3)cn12)C(=O)OC (stereo not drawn) | – | 0.807
O=C(CC(c1ccccc1)c1ccc2c(c1)OCO2)NCc1cnc2ccccn12 (stereo not drawn) | 0.924 | –
O=C(NC1CCCN(c2ncccn2)C1)c1cn2ccccc2n1 (stereo not drawn) | 0.981 | –
CCOC(=O)CCNC(=O)[C@H]1C[C@@H](C(=O)OC)N(C)[C@H]1c1cccc(F)c1F | 0.828 | –
O=C(c1cnc[nH]1)N1CCC(C2CCN(Cc3ccc(Cl)cc3)C2)CC1 (stereo not drawn) | 0.83 | –
O=C(NCCc1ccccn1)c1ccc(OC2CCN(C(=O)C3CC3)CC2)cc1 | – | -0.01

SMILES | bacterial growth OD600 (polymyxin B 0.75 µg/mL) | bacterial growth OD600 (polymyxin B 1 µg/mL)
O=C(Cc1cccs1)N1CCC(C2(c3ccccn3)NC(=O)N(CC3CCCO3)C2=O)CC1 (stereo not drawn) | 0.921 | –
Oc1ccc(CN2CC[C@@H](N3CCC(O)CC3)[C@H](O)C2)cc1Cl | – | 0.857
COc1cccc(OCc2nc(C(=O)NCc3c(F)cccc3F)co2)c1 | – | 0.928
COc1ccc(CN2CCN(Cc3cccc(F)c3)CC2CCO)c(C)c1C (stereo not drawn) | – | 1.03
CCCC(=O)NC1CC(=O)N(CCc2cccc(Cl)c2)C1 (stereo not drawn) | – | 0.813
c1ccc(Oc2ncccc2CNCc2cnn(-c3ccccc3)c2)cc1 | – | 0.959
CC1=C(C(=O)N2CCCC(CCC(=O)NCc3ccccc3Cl)C2)OCCO1 (stereo not drawn) | 0.859 | –
O=C(CCC1CCN(C(=O)c2cn3ccsc3n2)CC1)NCc1cccnc1 | – | 0.991
CC(C)C(=O)N1CCCC1C(=O)Nc1ccccc1Oc1cccnc1 (stereo not drawn) | – | 0.871
CC(C)N(C)Cc1nnnn1CC(=O)N1CCCC(C(=O)c2cccs2)C1 (stereo not drawn) | 0.804 | –
CCc1csc(CNC(=O)c2ccc(NC3CCCC3)nc2)n1 | – | 0.927
CCC1CN(CCNC(=O)CCCc2ccccc2)Cc2cc(OC)ccc2O1 (stereo not drawn) | 0.776 | –
O=C(NCC1Cc2cccc(-c3ncccn3)c2O1)C1CCC1 (stereo not drawn) | 0.871 | –
CC(C)N(Cc1cnn(C)c1)Cc1nc(-c2ccc(C(F)(F)F)cc2)no1 | – | 0.973
COc1ccc(CCN2C(=O)O[C@@H]3CN(Cc4cnn(C)c4C)C[C@@H]32)cc1 | 0.806 | –
COc1ccccc1N1CCN(c2nc(CNC(=O)c3ccncc3)nc3ccccc23)CC1 | 0.82 | –

Part of the list above in order of heavy-atom count, rising.
SMILES | bacterial growth OD600 (polymyxin B 0.75 µg/mL) | bacterial growth OD600 (polymyxin B 1 µg/mL)
CC(C)N(Cc1cnn(C)c1)Cc1nc(-c2ccc(C(F)(F)F)cc2)no1 | – | 0.973
O=C(CCC1CCN(C(=O)c2cn3ccsc3n2)CC1)NCc1cccnc1 | – | 0.991
COc1ccccc1N1CCN(c2nc(CNC(=O)c3ccncc3)nc3ccccc23)CC1 | 0.82 | –
